Experimental data: PubChem BioAssay AID1508597 (Cure First, 2020)
In all, the deposit lists about 2,100 reagents; this is an unselected part. 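Calls flag viability under 80% in either arm, not effects specific to rucaparib; the reference for percent is not stated.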 Not stated in the record: the 100% reference.

Assay: 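Genes whose silencing sensitises or protects ovarian cancer cells against rucaparib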 (primary screen)
Cells: human ovarian carcinoma lines grown from tumours: OCI-P5x (papillary serous) and OCI-C5x (clear cell)
Reagent: siRNA pool against human genes, 1.25 pmol siRNA per well
Duration: 72 h or 96 h, depending on the cell culture
Treatment: rucaparib 20 µM (about IC30) or vehicle, present until read-out
Detection: 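Luminescent ATP-based viability assay read 72 or 96 h after transfection, depending on culture, given as normalised percent viability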
Direction: viability, normalised: higher = more viable cells remaining
Hit rule: 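Active when normalised viability falls below 80 percent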
Calls: active = viability under 80%; inactive = viability 80% or more

gene | rucaparib or vehicle | cell line | technical replicate | viability, normalised (%) | call
BHLHE40 (basic helix-loop-helix family member e40) | Rucaparib | OCI-C5x (clear cell) | 1 | 51.8 | active
BHLHE40 (basic helix-loop-helix family member e40) | Rucaparib | OCI-C5x (clear cell) | 2 | 40.7 | active
BHLHE40 (basic helix-loop-helix family member e40) | Rucaparib | OCI-C5x (clear cell) | 3 | 46.9 | active
BHLHE40 (basic helix-loop-helix family member e40) | Rucaparib | OCI-P5x (serous) | 1 | 63.1 | active
BHLHE40 (basic helix-loop-helix family member e40) | Rucaparib | OCI-P5x (serous) | 2 | 64.8 | active
BHLHE40 (basic helix-loop-helix family member e40) | Rucaparib | OCI-P5x (serous) | 3 | 59.9 | active
BHLHE40 (basic helix-loop-helix family member e40) | Vehicle | OCI-C5x (clear cell) | 1 | 38.7 | active
BHLHE40 (basic helix-loop-helix family member e40) | Vehicle | OCI-C5x (clear cell) | 2 | 44 | active
BHLHE40 (basic helix-loop-helix family member e40) | Vehicle | OCI-C5x (clear cell) | 3 | 46.9 | active
BHLHE40 (basic helix-loop-helix family member e40) | Vehicle | OCI-P5x (serous) | 1 | 52.7 | active
BHLHE40 (basic helix-loop-helix family member e40) | Vehicle | OCI-P5x (serous) | 2 | 68.2 | active
BHLHE40 (basic helix-loop-helix family member e40) | Vehicle | OCI-P5x (serous) | 3 | 69.2 | active
MAP4K4 (mitogen-activated protein kinase kinase kinase kinase 4) | Rucaparib | OCI-C5x (clear cell) | 1 | 45 | active
MAP4K4 (mitogen-activated protein kinase kinase kinase kinase 4) | Rucaparib | OCI-C5x (clear cell) | 2 | 65.1 | active
MAP4K4 (mitogen-activated protein kinase kinase kinase kinase 4) | Rucaparib | OCI-C5x (clear cell) | 3 | 35.9 | active
MAP4K4 (mitogen-activated protein kinase kinase kinase kinase 4) | Rucaparib | OCI-P5x (serous) | 1 | 119 | inactive
MAP4K4 (mitogen-activated protein kinase kinase kinase kinase 4) | Rucaparib | OCI-P5x (serous) | 2 | 112 | inactive
MAP4K4 (mitogen-activated protein kinase kinase kinase kinase 4) | Rucaparib | OCI-P5x (serous) | 3 | 109 | inactive
MAP4K4 (mitogen-activated protein kinase kinase kinase kinase 4) | Vehicle | OCI-C5x (clear cell) | 1 | 70.8 | active
MAP4K4 (mitogen-activated protein kinase kinase kinase kinase 4) | Vehicle | OCI-C5x (clear cell) | 2 | 36.9 | active
MAP4K4 (mitogen-activated protein kinase kinase kinase kinase 4) | Vehicle | OCI-C5x (clear cell) | 3 | 67.2 | active
MAP4K4 (mitogen-activated protein kinase kinase kinase kinase 4) | Vehicle | OCI-P5x (serous) | 1 | 104 | inactive
MAP4K4 (mitogen-activated protein kinase kinase kinase kinase 4) | Vehicle | OCI-P5x (serous) | 2 | 100 | inactive
MAP4K4 (mitogen-activated protein kinase kinase kinase kinase 4) | Vehicle | OCI-P5x (serous) | 3 | 101 | inactive

Next part (6 carried over from the part before).
gene | rucaparib or vehicle | cell line | technical replicate | viability, normalised (%) | call
MAP4K4 (mitogen-activated protein kinase kinase kinase kinase 4) | Vehicle | OCI-C5x (clear cell) | 1 | 70.8 | active
MAP4K4 (mitogen-activated protein kinase kinase kinase kinase 4) | Vehicle | OCI-C5x (clear cell) | 2 | 36.9 | active
MAP4K4 (mitogen-activated protein kinase kinase kinase kinase 4) | Vehicle | OCI-C5x (clear cell) | 3 | 67.2 | active
MAP4K4 (mitogen-activated protein kinase kinase kinase kinase 4) | Vehicle | OCI-P5x (serous) | 1 | 104 | inactive
MAP4K4 (mitogen-activated protein kinase kinase kinase kinase 4) | Vehicle | OCI-P5x (serous) | 2 | 100 | inactive
MAP4K4 (mitogen-activated protein kinase kinase kinase kinase 4) | Vehicle | OCI-P5x (serous) | 3 | 101 | inactive
SETD7 (SET domain containing 7, histone lysine methyltransferase) | Rucaparib | OCI-C5x (clear cell) | 1 | 43.1 | active
SETD7 (SET domain containing 7, histone lysine methyltransferase) | Rucaparib | OCI-C5x (clear cell) | 2 | 47.8 | active
SETD7 (SET domain containing 7, histone lysine methyltransferase) | Rucaparib | OCI-C5x (clear cell) | 3 | 35.3 | active
SETD7 (SET domain containing 7, histone lysine methyltransferase) | Rucaparib | OCI-P5x (serous) | 1 | 43.9 | active
SETD7 (SET domain containing 7, histone lysine methyltransferase) | Rucaparib | OCI-P5x (serous) | 2 | 50.7 | active
SETD7 (SET domain containing 7, histone lysine methyltransferase) | Rucaparib | OCI-P5x (serous) | 3 | 50.8 | active
SETD7 (SET domain containing 7, histone lysine methyltransferase) | Vehicle | OCI-C5x (clear cell) | 1 | 59.2 | active
SETD7 (SET domain containing 7, histone lysine methyltransferase) | Vehicle | OCI-C5x (clear cell) | 2 | 42.5 | active
SETD7 (SET domain containing 7, histone lysine methyltransferase) | Vehicle | OCI-C5x (clear cell) | 3 | 49.9 | active
SETD7 (SET domain containing 7, histone lysine methyltransferase) | Vehicle | OCI-P5x (serous) | 1 | 43 | active
SETD7 (SET domain containing 7, histone lysine methyltransferase) | Vehicle | OCI-P5x (serous) | 2 | 63.7 | active
SETD7 (SET domain containing 7, histone lysine methyltransferase) | Vehicle | OCI-P5x (serous) | 3 | 84 | inactive
XRCC6 (X-ray repair cross complementing 6) | Rucaparib | OCI-C5x (clear cell) | 1 | 33.1 | active
XRCC6 (X-ray repair cross complementing 6) | Rucaparib | OCI-C5x (clear cell) | 2 | 44.2 | active
XRCC6 (X-ray repair cross complementing 6) | Rucaparib | OCI-C5x (clear cell) | 3 | 39.5 | active
XRCC6 (X-ray repair cross complementing 6) | Rucaparib | OCI-P5x (serous) | 1 | 74.2 | active
XRCC6 (X-ray repair cross complementing 6) | Rucaparib | OCI-P5x (serous) | 2 | 84.9 | inactive
XRCC6 (X-ray repair cross complementing 6) | Rucaparib | OCI-P5x (serous) | 3 | 85.4 | inactive
XRCC6 (X-ray repair cross complementing 6) | Vehicle | OCI-C5x (clear cell) | 1 | 54.9 | active
XRCC6 (X-ray repair cross complementing 6) | Vehicle | OCI-C5x (clear cell) | 2 | 52.4 | active
XRCC6 (X-ray repair cross complementing 6) | Vehicle | OCI-C5x (clear cell) | 3 | 31.7 | active
XRCC6 (X-ray repair cross complementing 6) | Vehicle | OCI-P5x (serous) | 1 | 70.2 | active
XRCC6 (X-ray repair cross complementing 6) | Vehicle | OCI-P5x (serous) | 2 | 59.3 | active
XRCC6 (X-ray repair cross complementing 6) | Vehicle | OCI-P5x (serous) | 3 | 52.5 | active
